PubChem BioAssay AID1259279 | Sanger Institute – 2017

Aim: 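Kinases that colorectal cancer cells need to survive, alone or with drugs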 (primary screen)
Cells: LS180 human colorectal cancer cells
Reagent: siRNA pool against human genes
Challenge: anchor drug BYL719 at 1 µM, cetuximab at 5 µg/ml or trametinib at 10 nM, or DMSO vehicle only
Detection: 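Viability as a fraction of non-targeting control and as a replicate-averaged robust z-score, with separate synergy scores for BYL719, cetuximab and trametinib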
Reading the numbers: viability z-score, no drug: higher = more viable cells after knock-down; viability, no drug: higher = more viable cells; synergy score with BYL719 and synergy score with cetuximab: higher = stronger synthetic lethal synergy with drug
Rule for the call: 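a knock-down is called active, meaning essential, if its viability z-score in vehicle alone falls below -3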
Meaning of the calls: active = essential (knock-down alone cuts viability); inactive = no change without drug
The deposit covers 794 reagents; below is an unselected part. 11 of all reagents (1.4%) were called active. 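Calls reflect knock-down alone in the vehicle arm, not drug synergy.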 A number with no mark means an inactive call. Viability is capped at 1. Not all columns of the deposit are shown. Not given: the amount of reagent, the time to read-out.

The opening 2 records, ahead of the listing:
gene symbol | viability z-score, no drug | viability, no drug (fraction) | synergy score with BYL719 | synergy score with cetuximab
WT1 | 0.86 | 1 | -0.164 | -0.166
KMT2B | -0.282 | 0.875 | -0.134 | -0.0261

Main list, repeating the preview:
gene symbol | viability z-score, no drug | viability, no drug (fraction) | synergy score with BYL719 | synergy score with cetuximab
WT1 | 0.86 | 1 | -0.164 | -0.166
KMT2B | -0.282 | 0.875 | -0.134 | -0.0261
FGR | -1.52 | 0.741 | -0.0476 | -0.103
NEK6 | 0.86 | 1 | -0.201 | -0.166
EPHB6 | 0.86 | 1 | -0.157 | -0.166
PLK1 | -3.76 (active) | 0.496 | 0.0371 | 0.0099
GCK | -1.47 | 0.746 | -0.0899 | -0.215
ITPKB | 0.229 | 0.931 | -0.229 | -0.185
UCKL1 | 0.86 | 1 | 0.0559 | -0.0847
ADCK2 | -1.06 | 0.79 | -0.0115 | 0.0421
PKLR | 0.86 | 1 | -0.201 | -0.0503
BMAL1 | -0.137 | 0.891 | 0.0652 | 0.116
PIK3R4 | 0.86 | 1 | -0.0894 | -0.0777
BRSK1 | 0.56 | 0.967 | -0.101 | -0.133
NF1 | 0.86 | 1 | -0.0974 | -0.0589
MAP3K5 | 0.377 | 0.947 | -0.033 | -0.135
IP6K1 | 0.86 | 1 | -0.142 | -0.15
CAMK2N1 | -2.09 | 0.679 | -0.0565 | 0.00306
TGFBR3 | 0.86 | 1 | -0.112 | -0.154
TEK | 0.86 | 1 | -0.0493 | -0.155
EPHA3 | -1.71 | 0.72 | -0.0308 | -0.0329
BMPR1B | 0.197 | 0.928 | 0.00353 | -0.182
CREBBP | 0.182 | 0.926 | 0.0279 | -0.0519
MAST2 | 0.341 | 0.943 | -0.0179 | -0.141
ALPK2 | 0.82 | 0.996 | -0.0642 | 0.0319
PDK2 | 0.549 | 0.966 | -0.0359 | -0.0194
PRKCQ | 0.354 | 0.945 | 0.0619 | -0.051
STK11 | 0.86 | 1 | -0.137 | -0.154
PDGFRA | -0.161 | 0.889 | -0.0297 | -0.249
MAST3 | 0.86 | 1 | 0.0225 | -0.00651
PRKAA1 | -0.662 | 0.834 | -0.02 | 0.0498
UCK1 | -0.161 | 0.889 | -0.0682 | -0.00533
STK3 | -0.867 | 0.812 | -0.178 | -0.255
ASPM | -0.339 | 0.869 | -0.128 | -0.0744
GRK1 | 0.385 | 0.948 | -0.0866 | -0.0427
PASK | 0.299 | 0.939 | -0.105 | -0.0617
TLK2 | 0.86 | 1 | -0.201 | -0.166
CHKB | 0.86 | 1 | -0.00901 | -0.152
AKT2 | 0.86 | 1 | -0.0251 | 0.0593
MAP3K1 | 0.86 | 1 | 0.0207 | -0.012
CDKN2B | 0.86 | 1 | -0.102 | -0.146
ULK1 | 0.115 | 0.919 | -0.196 | -0.199
RBM10 | -2.37 | 0.647 | -0.0888 | 0.0122
DGKG | -0.561 | 0.845 | -0.269 | -0.138
MYO3B | 0.0486 | 0.912 | -0.0483 | 0.064
PI4K2B | 0.0957 | 0.917 | -0.211 | -0.16
AXIN2 | -0.251 | 0.879 | -0.0947 | -0.0152
DYRK2 | 0.86 | 1 | -0.113 | 0.0482
CDK5 | -0.754 | 0.824 | -0.25 | -0.251
CDK16 | -2.03 | 0.685 | -0.0136 | -0.0343
